Results from patent US20090030086A1, “ANTIMICROBIAL AGENTS” (priority 2005, published 2009).
Some entries share one result that the patent states for a list of compounds.

System: S. aureus ATCC 29213
Test: Supplemented disc diffusion assay
Type: cell-based, Staphylococcus aureus
Details: for both serum and salt
Description: The staphylococci and enterococci were cultured and maintained on Mueller-Hinton Medium (agar and broth) at pH 7.2; they were incubated aerobically at 37° C. for 24 hours.
A sterile paper disc was impregnated with a sample of the test compound and a minimum of 30 minutes allowed for the solvents to evaporate as far as possible. The disc was then placed on an agar plate onto which the test micro-organism had been inoculated. The plate was then incubated under the conditions described above, following which it was examined visually for signs of bacterial growth. […] The diameter of this zone of “inhibition” was measured using a ProtoCOL™ automated zone sizer (Synbiosis, Cambridge, UK).
Performance under these conditions can provide a more reliable indication of activity on topical application. For assays conducted using S. aureus strains, the supplements were defibrinated horse blood (5% v/v), lipid (Tween™ 80 at 1% v/v) and sodium chloride (100 mM). For those using Propionibacterium spp. strains, the supplements were lipid (Tween™ 80 at 1% v/v) and sodium chloride (100 mM).
The following experiments all used S. aureus ATCC 29213 as the test organism. MIC, MBC and DDA assays, as described above, were carried out using a range of different benzoquinones and hydroquinones. Supplemented DDA assays, in the presence of salt, lipid and blood, were also conducted. […]

COC1=CC(=O)C=C(OC)C1=O [2,6-dimethoxy-p-benzoquinone]
reduction in zone size in the presence of serum and salt: < 50%
